{"source": "patent US20260166021A1", "about": "“POLYMORPHIC FORMS OF A SOLUBLE EPOXIDE HYDROLASE INHIBITOR AND FORMULATIONS THEREOF” (EicOsis, LLC, priority 2022, published 2026)", "assay": "Crystallization of Formula (I) in single- and binary-solvent systems (resultant XRD pattern)", "procedure": "Formula (I) crystallization was first analyzed in single-solvent systems lacking antisolvent. […] Fast cooling was performed by placing the vials in a 4° C. refrigerator for 24 hours, while slow cooling was performed by decreasing the temperatures of the vials by 20° C./h with stirring. The resulting solids were isolated by centrifuge filtration through […] centrifuge filters. When solids were not produced, the solution was evaporated under nitrogen as an additional attempt to obtain solid. All obtained solids were analyzed by XRD to determine the solid pattern.\nFormula (I) recrystallization was then tested with binary-solvent systems containing water, n-heptane, or c-hexane as antisolvent. […] Anti solvents were added drop-wise at the same temperature until precipitate was observed or the vial volume was reached (˜7 mL). The vials were quickly cooled to 4° C. or slowly cooled by 20° C./hour as in the single-solvent recrystallizations. The resulting solids were isolated by centrifuge filtration. The samples without precipitation were evaporated to dryness under a gentle stream of nitrogen gas as an additional attempt to obtain solid. All obtained solids were analyzed by XRD to determine the solid form. […]", "data": [{"smiles": "CC[C@H](C)C(=O)N1CCC(NC(=O)Nc2ccc(OC(F)(F)F)c(F)c2)CC1", "note": "[Formula (I) FORM A]", "values": [{"measurement": "XRD pattern of solid after single-solvent crystallization", "setting": "ACN, 70° C., Slow (20° C./h) cooling", "value": "A +"}, {"measurement": "XRD pattern of solid after single-solvent crystallization", "setting": "Acetone, 50° C., Fast (4° C.) cooling", "value": "E +"}, {"measurement": "XRD pattern of solid after single-solvent crystallization", "setting": "Acetone, 50° C., Slow (20° C./h) cooling", "value": "B +"}, {"measurement": "XRD pattern of solid after single-solvent crystallization", "setting": "EtOAc, 70° C., Fast (4° C.) cooling", "value": "G +"}, {"measurement": "XRD pattern of solid after single-solvent crystallization", "setting": "EtOAc, 70° C., Slow (20° C./h) cooling", "value": "B +"}, {"measurement": "XRD pattern of solid after single-solvent crystallization", "setting": "MEK, 70° C., Fast (4° C.) cooling", "value": "G +"}, {"measurement": "XRD pattern of solid after single-solvent crystallization", "setting": "MIBK, 70° C., Slow (20° C./h) cooling", "value": "H*"}, {"measurement": "XRD pattern of solid after single-solvent crystallization", "setting": "n-BuOH, 70° C., Fast (4° C.) cooling", "value": "B*"}]}]}
